Laboratory results: PubChem BioAssay AID686938 (Drosophila RNAi Screening Center, 2013)
The deposit covers about 23,000 reagents; below is an unselected part of those that have a named target and a result. In the full data, 75 (0.33%) are marked active. 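Raw plate signals without normalisation; calls rest on plate z-scores that were not deposited; ratio present for only 364 wells.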 Reagent sequences are not shown. Not stated in the record: the dose of the treatment.

Screen: 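Looking for CRAC channel components and the factors controlling them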 (primary screen)
Cell system: Drosophila S2R+ cells
Reagent: long dsRNA against Drosophila genes, about 0.25 µg dsRNA per well, roughly 10,000 cells
Duration: 5 days of knock-down before the calcium assay
Challenge: thapsigargin (SERCA pump blocker) to empty calcium stores; entry signal taken 4 min after adding it
Measurement: 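Per-well fluo-4 fluorescence in two replicates, unnormalised, measured in resting cells and 4 min after store depletion by the SERCA blocker thapsigargin; ratio of the two present in few wells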
Reading the numbers: calcium entry signal: higher = stronger calcium signal after store depletion; resting calcium signal: higher = higher resting calcium signal
Hit rule: 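Called when the plate z-score of the entry-to-rest ratio, mean of duplicates, falls below −3; wells with low overall dye signal (Fmax z below −2) or more than five off-targets excluded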
Calls: active = strongly reduced calcium entry; inactive = no strong reduction

After knock-down of CG32846 [DRSC08012] the results were calcium entry signal, replicate 1 (fluorescence units) = 3.52e7; calcium entry signal, replicate 2 (fluorescence units) = 3.69e7; resting calcium signal, replicate 1 (fluorescence units) = 2.28e7; resting calcium signal, replicate 2 (fluorescence units) = 1.76e7; inactive. Against Wnk [DRSC11813] the deposit lists calcium entry signal, replicate 1 (fluorescence units) = 2.74e7; calcium entry signal, replicate 2 (fluorescence units) = 4.15e7; resting calcium signal, replicate 1 (fluorescence units) = 1.32e7; resting calcium signal, replicate 2 (fluorescence units) = 2.09e7; inactive. After knock-down of Eps-15 [DRSC04288], the record shows calcium entry signal, replicate 1 (fluorescence units) = 4.45e7; resting calcium signal, replicate 1 (fluorescence units) = 2.23e7; inactive. Knock-down of boly [DRSC21629] gave: calcium entry signal, replicate 1 (fluorescence units) = 3.37e7; calcium entry signal, replicate 2 (fluorescence units) = 3.84e7; resting calcium signal, replicate 1 (fluorescence units) = 1.86e7; resting calcium signal, replicate 2 (fluorescence units) = 1.75e7; inactive. Depletion of Mitofilin [DRSC16742] resulted in: calcium entry signal, replicate 1 (fluorescence units) = 3.24e7; calcium entry signal, replicate 2 (fluorescence units) = 2.95e7; resting calcium signal, replicate 1 (fluorescence units) = 1.60e7; resting calcium signal, replicate 2 (fluorescence units) = 1.26e7; inactive. Depletion of Nop60B [DRSC04627] gave: calcium entry signal, replicate 1 (fluorescence units) = 2.81e7; resting calcium signal, replicate 1 (fluorescence units) = 1.60e7; inactive.

Knock-down of CG13408 [DRSC13534] resulted in: calcium entry signal, replicate 1 (fluorescence units) = 4.22e7; calcium entry signal, replicate 2 (fluorescence units) = 2.73e7; resting calcium signal, replicate 1 (fluorescence units) = 2.19e7; resting calcium signal, replicate 2 (fluorescence units) = 1.35e7; inactive. CG13408 [DRSC14584] scored calcium entry signal, replicate 1 (fluorescence units) = 3.90e7; calcium entry signal, replicate 2 (fluorescence units) = 5.28e7; resting calcium signal, replicate 1 (fluorescence units) = 5.33e7; resting calcium signal, replicate 2 (fluorescence units) = 2.20e7; inactive. CG42326 [DRSC06483] showed calcium entry signal, replicate 1 (fluorescence units) = 3.85e7; calcium entry signal, replicate 2 (fluorescence units) = 4.28e7; resting calcium signal, replicate 1 (fluorescence units) = 1.85e7; resting calcium signal, replicate 2 (fluorescence units) = 1.85e7; inactive. Silencing of CG42326 [DRSC06484] resulted in: calcium entry signal, replicate 1 (fluorescence units) = 4.11e7; calcium entry signal, replicate 2 (fluorescence units) = 3.77e7; resting calcium signal, replicate 1 (fluorescence units) = 1.86e7; resting calcium signal, replicate 2 (fluorescence units) = 1.67e7; inactive. Depletion of CG11619 [DRSC09849] gave: calcium entry signal, replicate 1 (fluorescence units) = 2.00e7; calcium entry signal, replicate 2 (fluorescence units) = 3.19e7; resting calcium signal, replicate 1 (fluorescence units) = 1.04e7; resting calcium signal, replicate 2 (fluorescence units) = 1.51e7; inactive.

An excerpt from above, showing only “resting calcium signal, replicate 1 (fluorescence units)”.
Eps-15 [DRSC04288]	2.23e7
boly [DRSC21629]	1.86e7
Mitofilin [DRSC16742]	1.60e7
Nop60B [DRSC04627]	1.60e7

Continued.
After knock-down of amd [DRSC02608], the record shows calcium entry signal, replicate 1 (fluorescence units) = 5.94e7; calcium entry signal, replicate 2 (fluorescence units) = 2.71e7; resting calcium signal, replicate 1 (fluorescence units) = 2.85e7; resting calcium signal, replicate 2 (fluorescence units) = 1.45e7; inactive. For amd [DRSC03483] the deposit lists calcium entry signal, replicate 1 (fluorescence units) = 4.97e7; calcium entry signal, replicate 2 (fluorescence units) = 5.97e7; resting calcium signal, replicate 1 (fluorescence units) = 2.59e7; resting calcium signal, replicate 2 (fluorescence units) = 2.40e7; inactive. With knock-down of Ir7a [DRSC17866], the screen gave calcium entry signal, replicate 1 (fluorescence units) = 3.02e7; calcium entry signal, replicate 2 (fluorescence units) = 3.00e7; resting calcium signal, replicate 1 (fluorescence units) = 1.46e7; resting calcium signal, replicate 2 (fluorescence units) = 1.37e7; inactive. With knock-down of CG1983 [DRSC15410], the screen gave calcium entry signal, replicate 1 (fluorescence units) = 2.88e7; calcium entry signal, replicate 2 (fluorescence units) = 2.88e7; resting calcium signal, replicate 1 (fluorescence units) = 1.61e7; resting calcium signal, replicate 2 (fluorescence units) = 1.37e7; inactive. Silencing of kune [DRSC04860] resulted in: calcium entry signal, replicate 1 (fluorescence units) = 3.89e7; calcium entry signal, replicate 2 (fluorescence units) = 5.39e7; resting calcium signal, replicate 1 (fluorescence units) = 2.02e7; resting calcium signal, replicate 2 (fluorescence units) = 2.27e7; inactive. With knock-down of RpL11 [DRSC07537], the record shows calcium entry signal, replicate 1 (fluorescence units) = 1.39e7; calcium entry signal, replicate 2 (fluorescence units) = 9.85e6; resting calcium signal, replicate 1 (fluorescence units) = 9.15e6; resting calcium signal, replicate 2 (fluorescence units) = 7.80e6; inactive.

With knock-down of SdhD [DRSC14215], the record shows calcium entry signal, replicate 1 (fluorescence units) = 4.51e7; calcium entry signal, replicate 2 (fluorescence units) = 2.83e7; resting calcium signal, replicate 1 (fluorescence units) = 2.16e7; resting calcium signal, replicate 2 (fluorescence units) = 1.35e7; inactive. Against CG9389 [DRSC11857], the entry reads calcium entry signal, replicate 1 (fluorescence units) = 4.06e7; calcium entry signal, replicate 2 (fluorescence units) = 4.95e7; resting calcium signal, replicate 1 (fluorescence units) = 1.93e7; resting calcium signal, replicate 2 (fluorescence units) = 3.11e7; inactive. For Mzt1 [DRSC07979] the deposit lists calcium entry signal, replicate 1 (fluorescence units) = 2.81e7; calcium entry signal, replicate 2 (fluorescence units) = 4.98e7; resting calcium signal, replicate 1 (fluorescence units) = 2.41e7; resting calcium signal, replicate 2 (fluorescence units) = 2.20e7; inactive. CG1632 [DRSC17558] showed calcium entry signal, replicate 1 (fluorescence units) = 3.21e7; calcium entry signal, replicate 2 (fluorescence units) = 3.54e7; resting calcium signal, replicate 1 (fluorescence units) = 1.60e7; resting calcium signal, replicate 2 (fluorescence units) = 1.71e7; inactive. Against CG1632 [DRSC18110], the entry reads calcium entry signal, replicate 1 (fluorescence units) = 3.52e7; calcium entry signal, replicate 2 (fluorescence units) = 5.51e7; resting calcium signal, replicate 1 (fluorescence units) = 1.80e7; resting calcium signal, replicate 2 (fluorescence units) = 2.47e7; inactive.
